Experimental data as given in doi:10.64898/2025.12.17.694969.
Numbering of substitutions follows the chain as printed. Read-outs that look alike come from different tables or passages of the source. No constants are given. Whether binding was seen depends on the method and setting. In cells and extracts the contact can be indirect. Here binding means that the protein was enriched with, or labelled near, the bait; the list need not be complete. For some of these results: A no says only that the protein was not detected with the bait. Where a sequence is shown, tags or fusion partners need not be part of it.

How the values were obtained:
Assay in all cases: affinity purification with mass spectrometry
[1] = biological target: T1, Symplekin with twin-StrepII tag (S. pombe Symplekin/Pta1) (S. pombe) (UniProt Q10222)
T1 sequence: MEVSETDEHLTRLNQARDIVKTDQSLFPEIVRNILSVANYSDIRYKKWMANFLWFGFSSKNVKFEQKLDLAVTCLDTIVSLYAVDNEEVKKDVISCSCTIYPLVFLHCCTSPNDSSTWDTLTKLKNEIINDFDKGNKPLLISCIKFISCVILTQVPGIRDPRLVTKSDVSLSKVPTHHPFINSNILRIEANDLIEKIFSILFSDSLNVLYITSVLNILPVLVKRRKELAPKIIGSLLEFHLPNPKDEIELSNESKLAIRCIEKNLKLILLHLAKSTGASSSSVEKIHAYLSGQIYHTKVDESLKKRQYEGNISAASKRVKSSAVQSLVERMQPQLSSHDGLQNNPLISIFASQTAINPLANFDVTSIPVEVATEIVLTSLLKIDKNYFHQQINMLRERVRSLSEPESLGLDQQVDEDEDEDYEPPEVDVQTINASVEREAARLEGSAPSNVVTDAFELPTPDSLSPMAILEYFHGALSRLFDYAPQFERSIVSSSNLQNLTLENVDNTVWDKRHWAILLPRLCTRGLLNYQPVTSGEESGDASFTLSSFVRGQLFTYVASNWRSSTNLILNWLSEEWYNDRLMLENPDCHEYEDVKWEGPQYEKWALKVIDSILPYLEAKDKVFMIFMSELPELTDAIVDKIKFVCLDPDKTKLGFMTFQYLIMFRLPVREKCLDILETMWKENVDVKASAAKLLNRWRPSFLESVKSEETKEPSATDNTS

[2] = biological target: T2, V5-tagged Symplekin^WT (S. pombe) (UniProt Q10222)
T2 sequence: T1 sequence

[3] = biological target: T3, V5-tagged Symplekin^DPR-AAA (S. pombe) (UniProt Q10222)
T3 sequence: T1 sequence with D160A, P161A, R162A

[4] = biological target: T1, Symplekin with twin-StrepII tag (S. pombe Symplekin/Pta1) (S. pombe); remark: listed apart in the source

For WDR82 (S. pombe WDR82/Swd2.2), the binding [1] was “binds”.

With WDR82 (endogenous, S. pombe) the binding [2] was “binds” and the binding [3] was “no binding”.

B1: Ssu72 (S. pombe) (enzyme, UniProt O42868 1-197)
chain: MAPKTNLQISVICASNQNRSMEAHNVLKNAGYQVDSFGTGSAVRLPGPSIDKPNIYQFGYPYDEIYKELEAQDSRLYTANGLLKMLDRNRRIKRAPCRWQDQDSIYNIVITCEERCYDAICEDLYRRGETLNRPVYLINVDIKDNHEEASVGGKAILDLVNKLTEAQDKLEELFPSIMADFQSNHPKLPVLYTIHFF
For B1, the binding [4] was “binds”.
